Assay results from PubChem BioAssay AID2551 (National Center for Advancing Translational Sciences (NCATS), 2010).
In all, about 310,000 compounds went through this assay and about 17,000 (5.5%) were called active. The inconclusive results got no clear call from the source; some entries with a clear call stand among them for comparison. The call rests on the fitted dose curve; in most records, active means well fitted inhibition curve with a large enough effect; inconclusive means small, poorly fitted or top-dose-only effect, or effect the other way; inactive means no such curve, though single readings can be large or run the other way. Potencies beside an inconclusive call are fits to weak or partial responses and may not hold up.

Protein sequences, listed by entry. Tags and fused reporters are not part of them. Lines headed by an entry give the natural chain unless they say otherwise; changes in a name come on top.
UniProt P51450: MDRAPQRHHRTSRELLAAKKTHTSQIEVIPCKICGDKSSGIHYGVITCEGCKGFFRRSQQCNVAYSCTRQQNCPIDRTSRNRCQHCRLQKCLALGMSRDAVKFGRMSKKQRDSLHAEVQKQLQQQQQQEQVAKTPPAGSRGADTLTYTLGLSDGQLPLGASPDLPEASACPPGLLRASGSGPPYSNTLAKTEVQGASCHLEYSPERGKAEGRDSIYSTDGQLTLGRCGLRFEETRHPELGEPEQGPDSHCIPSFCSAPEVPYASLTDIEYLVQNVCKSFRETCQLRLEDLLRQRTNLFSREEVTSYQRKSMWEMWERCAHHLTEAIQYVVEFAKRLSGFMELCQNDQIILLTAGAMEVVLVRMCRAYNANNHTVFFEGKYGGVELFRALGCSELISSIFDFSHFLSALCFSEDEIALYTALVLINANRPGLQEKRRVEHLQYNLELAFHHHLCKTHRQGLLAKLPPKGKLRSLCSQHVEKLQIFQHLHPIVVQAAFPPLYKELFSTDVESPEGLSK

The molecules below were run against Nuclear receptor ROR-gamma (Mus musculus) (UniProt P51450) (assay: qHTS for inhibitors of ROR gamma transcriptional activity). Conditions: Drosophila S2 Gal4-RORgamma UAS-luciferase reporter, 20 h; activity change, negative = inhibition: at 53.6 µM (top of the series).
Procedure, shortened: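 ROR gamma transcriptional activity was tracked as Gal4-UAS luciferase output in stably transfected Drosophila Schneider cells, with compound added 1 hr before 700 uM copper sulfate induction and a 20 hr ambient-temperature incubation.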
Further: nearly all actives have a fitted effect of over 60% in size.
On the % scale 0 is the no-effect control and ±100 the full control effect; potency means the concentration at half of the fitted maximal effect.

SMILES	Potency	activity change, negative = inhibition
COc1ccc(-c2nn(-c3ccccc3)cc2/C=C(\CC(=O)O)c2nc3ccccc3s2)cc1OC	inconclusive: 2.51 µM [activator, full curve]	–
N/C(=N\OCc1ccccc1)c1nonc1N	inconclusive: 35.5 µM [inhibitor, single point]	–
COc1ccc2c(c1)C(=O)N(c1ccc(C)cc1C)C(=O)C2	inconclusive: 12.6 µM [activator, single point]	–
Cc1ccc(NCC(=O)c2ccc(C)cc2)cc1	inconclusive: 15.8 µM [activator, partial curve]	–
CC(=O)c1cccc(OCCCOc2cccc3cccnc23)c1	–	inactive: 19.4%
C=CCOC(=O)C1=C(C)Nc2nc3ccccc3n2C1c1ccncc1 (configuration not stated)	inconclusive: 2.82 µM [inhibitor, full curve, poor fit]	–
CCN(CC)c1ccc(NC(=S)NC(=O)Cc2ccccc2)cc1	active: 2.51 µM	–
CCNc1nc(NCC)nc(N/N=C(\C)c2ccc(OC)cc2)n1	active: 7.08 µM	–
Cc1cc(C(F)(F)F)n2ncc(C(=O)O)c2n1	–	inactive: 7.77%
O=C1N=C(N2CCOCC2)S/C1=C\c1ccc(OS(=O)(=O)c2ccccc2)cc1	inconclusive: 35.5 µM [activator, single point]	–
CC(=O)N1c2ccc(S(=O)(=O)N3CCC(C(=O)N4CCN(c5ccc(Cl)cc5)CC4)CC3)cc2CC1C (configuration not stated)	inconclusive: 20 µM [activator, single point]	–
Cc1ccc(-n2cc(CN3CCN(Cc4nccn4C)CC3)c(-c3ccc(F)cc3)n2)cc1	inconclusive: 22.4 µM [inhibitor, single point]	–
Cc1cc(=O)[nH]c(SCC(=O)Nc2nc3ccccc3s2)n1	inconclusive: 35.5 µM [inhibitor, single point]	–
Cc1cccc(/C=C/c2onc(C)c2S(=O)(=O)N2CCC(C(=O)NC(C)C)CC2)c1	–	inactive: -0.6%
Cn1cc([N+](=O)[O-])c(C(=O)Nc2ccc3c(c2)OCCO3)n1	inconclusive: 12.6 µM [inhibitor, single point]	–
COc1ccc(NC(=S)NCc2cccs2)cc1OC	active: 12.6 µM	–
O=C(c1ccc(NS(=O)(=O)c2cccc(F)c2)cc1)N1CCCCC1	inconclusive: 20 µM [activator, single point]	–
COc1cc(CNn2c(C)n[nH]c2=S)cc(Cl)c1OCC(=O)NC(C)(C)C	inconclusive: 10 µM [activator, single point]	–
N#Cc1c(C#N)c(O)c2ccccc2c1O	–	inactive: -7.46%
Cc1cc(=O)oc(C)c1C(=O)N1CCN(c2ccc(F)cc2)CC1	–	inactive: -3.99%
Cc1ccc2[nH]cc(CCNC(=O)Nc3ccccc3)c2c1	inconclusive: 14.1 µM [activator, single point]	–
O=C(NN=C1CCCC1)c1ccc(O)cc1O	active: 7.94 µM	–
COc1ccc(NC(=O)C(Cc2ccccc2)n2cccc2)c(OC)c1 (configuration not stated)	inconclusive: 7.94 µM [activator, partial curve]	–
Cc1ccc(NC(=O)N2CCN(c3ccccn3)CC2)cc1	inconclusive: 12.6 µM [activator, single point]	–

SMILES	Potency	activity change, negative = inhibition
COc1cccc(N2C(=O)CC(N3CCN(CCN=CC4=C(O)CC(C)(C)CC4=O)CC3)C2=O)c1 (configuration not stated)	inconclusive: 5.62 µM [inhibitor, single point]	–
O=S(=O)(Cc1ccccc1Cl)NCc1ccccc1	inconclusive: 6.31 µM [activator, partial curve, poor fit]	–
COc1ccc(C2N(c3ccccc3)CCN2c2ccccc2)cc1O	–	inactive: 0.913%
CC1CCN(c2ccc([N+](=O)[O-])cc2C(=O)NCC2CCCO2)CC1 (configuration not stated)	–	inactive: -14.4%
COc1ccc(N2C(=O)CC(N3CCC(O)(c4ccc(Br)cc4)CC3)C2=O)cc1 (configuration not stated)	inconclusive: 35.5 µM [activator, single point]	–
CCc1nnc(NC(=O)CN2CCN(c3cccc(OC)c3)CC2)s1	inconclusive: 22.4 µM [inhibitor, single point]	–
CN1CCN(c2ccccc2NC(=O)c2ccc(-c3ccc(Cl)c(Cl)c3)o2)CC1	–	inactive: 23.2%
Cc1c(C#N)c(NC(=O)CCl)n(Cc2ccc(F)cc2)c1C	–	inactive: -42.8%
NC(=O)c1ccc2nc(NC(=O)c3ccc(N)cc3)sc2c1	–	inactive: 12.1%
Oc1ccc(Br)cc1-c1cc(-c2ccccc2Cl)[nH]n1	active: 2.82 µM	–
O=S(=O)(Nc1ccccc1N1CCCCC1)c1ccccc1	inconclusive: 20 µM [activator, single point]	–
CCN(CC)CC(=O)Nc1sc(C)cc1C(=O)c1ccc(C)cc1	active: 3.16 µM	–
CC(C)(C)OC(=O)N[C@@H](Cc1ccccc1)c1nnc(S(=O)(=O)Cc2cccc(F)c2)o1	active: 4.47 µM	–
c1ccc(Cc2nnc3sc(C4COc5ccccc5O4)nn23)cc1 (configuration not stated)	inconclusive: 35.5 µM [activator, single point]	–
O=C(c1cccs1)N1CCCC(c2nc3c(nnn3Cc3cccc(Cl)c3)c(=O)[nH]2)C1 (configuration not stated)	inconclusive: 2.51 µM [activator, partial curve]	–
FC(F)(F)c1ccc(Cl)c(-n2c(Cc3cccs3)n[nH]c2=S)c1	inconclusive: 6.31 µM [inhibitor, single point]	–
CCn1nnc(NC(=O)c2ccc(-c3ccc(Cl)cc3)o2)n1	inconclusive: 3.16 µM [activator, partial curve]	–
CCOC(=O)N/N=C\c1cccc(OC)c1	–	inactive: 32.4%
COc1ccc(CCNC(=O)c2ccc(CS(=O)(=O)c3ccc(Br)cc3)o2)cc1OC	inconclusive: 12.6 µM [activator, single point]	–
O=c1[nH]c(CSc2nc3ccccc3[nH]2)nc2c1cnn2-c1ccccc1	inconclusive: 7.94 µM [activator, partial curve]	–
COC(=O)c1c(/N=C/NOCc2ccc(Cl)cc2)sc2c1CCN(c1ncc(C(F)(F)F)cc1Cl)C2	–	inactive: -2.66%
CN(CCNC(=O)Cn1c(=O)sc2ccccc21)Cc1ccccc1	inconclusive: 35.5 µM [inhibitor, single point]	–
Cc1cc(C(=O)N/N=C/c2ccc(C)o2)c2ccccc2n1	inconclusive: 12.6 µM [inhibitor, single point]	–

Entries from the list above with a Cl atom:
SMILES	Potency	activity change, negative = inhibition
CC(=O)N1c2ccc(S(=O)(=O)N3CCC(C(=O)N4CCN(c5ccc(Cl)cc5)CC4)CC3)cc2CC1C (configuration not stated)	inconclusive: 20 µM [activator, single point]	–
COc1cc(CNn2c(C)n[nH]c2=S)cc(Cl)c1OCC(=O)NC(C)(C)C	inconclusive: 10 µM [activator, single point]	–
O=S(=O)(Cc1ccccc1Cl)NCc1ccccc1	inconclusive: 6.31 µM [activator, partial curve, poor fit]	–
CN1CCN(c2ccccc2NC(=O)c2ccc(-c3ccc(Cl)c(Cl)c3)o2)CC1	–	inactive: 23.2%
Cc1c(C#N)c(NC(=O)CCl)n(Cc2ccc(F)cc2)c1C	–	inactive: -42.8%
Oc1ccc(Br)cc1-c1cc(-c2ccccc2Cl)[nH]n1	active: 2.82 µM	–
O=C(c1cccs1)N1CCCC(c2nc3c(nnn3Cc3cccc(Cl)c3)c(=O)[nH]2)C1 (configuration not stated)	inconclusive: 2.51 µM [activator, partial curve]	–
FC(F)(F)c1ccc(Cl)c(-n2c(Cc3cccs3)n[nH]c2=S)c1	inconclusive: 6.31 µM [inhibitor, single point]	–
CCn1nnc(NC(=O)c2ccc(-c3ccc(Cl)cc3)o2)n1	inconclusive: 3.16 µM [activator, partial curve]	–
COC(=O)c1c(/N=C/NOCc2ccc(Cl)cc2)sc2c1CCN(c1ncc(C(F)(F)F)cc1Cl)C2	–	inactive: -2.66%

One compound at a time, as listed above.
Cc1cc(C(=O)N/N=C/c2ccc(C)o2)c2ccccc2n1 is entered as Potency: inconclusive: 12.6 µM [inhibitor, single point]
COc1ccc(CCNC(=O)c2ccc(CS(=O)(=O)c3ccc(Br)cc3)o2)cc1OC is entered as Potency: inconclusive: 12.6 µM [activator, single point]
